Data from publication PMC8671107 (Frontiers in Molecular Biosciences, 2021).
No constants are given. Whether binding was seen depends on the method and setting. Some results given as binding are weak or reduced against the parent protein; the word gives no strength.

Protein sequences, listed by entry. Tags and fused reporters are not part of them. Residues count along the entry.
UniProt P36544, residues 23-502: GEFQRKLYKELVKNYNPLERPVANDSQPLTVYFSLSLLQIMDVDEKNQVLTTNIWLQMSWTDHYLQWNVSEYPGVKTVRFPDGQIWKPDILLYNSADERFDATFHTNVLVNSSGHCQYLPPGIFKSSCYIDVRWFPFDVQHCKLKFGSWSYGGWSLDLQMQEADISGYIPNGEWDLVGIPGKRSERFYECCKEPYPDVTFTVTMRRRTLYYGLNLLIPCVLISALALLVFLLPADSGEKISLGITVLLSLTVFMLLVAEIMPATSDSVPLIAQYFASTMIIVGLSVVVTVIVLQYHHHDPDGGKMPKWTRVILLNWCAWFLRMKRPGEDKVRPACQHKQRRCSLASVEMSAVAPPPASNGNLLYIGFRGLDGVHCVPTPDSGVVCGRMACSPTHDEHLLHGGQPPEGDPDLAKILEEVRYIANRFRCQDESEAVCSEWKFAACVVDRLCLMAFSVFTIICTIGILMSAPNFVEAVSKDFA
UniProt P60615, residues 22-95: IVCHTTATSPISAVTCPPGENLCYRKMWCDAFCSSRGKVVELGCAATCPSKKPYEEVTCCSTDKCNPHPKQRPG

Molecular target: neuronal human α7 nicotinic acetylcholine receptor expressed in GH4C1 cells (human) (UniProt P36544)
Assay: radioligand binding; only the binder purified

## ^125I-α-bungarotoxin (from UniProt P60615 22-95)
  binding: binds
